US7279161B2, “Factor IX/factor IXa activating antibodies and antibody derivatives” (Baxter Aktiengesellschaft, priority 1999, dated 2007)
Some of these results come from one statement about several compounds together.

The chains behind the UniProt entries cited, without tags or fusion partners. Residues count along the entry.
UniProt P00740, 227-461 limits assumed: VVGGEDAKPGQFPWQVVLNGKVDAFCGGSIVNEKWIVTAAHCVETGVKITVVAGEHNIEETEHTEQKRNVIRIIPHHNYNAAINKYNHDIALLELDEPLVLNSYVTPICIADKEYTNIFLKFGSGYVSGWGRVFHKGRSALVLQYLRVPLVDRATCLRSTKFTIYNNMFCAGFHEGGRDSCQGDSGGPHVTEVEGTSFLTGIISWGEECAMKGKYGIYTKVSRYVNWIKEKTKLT
UniProt P00740, 47-191 limits assumed: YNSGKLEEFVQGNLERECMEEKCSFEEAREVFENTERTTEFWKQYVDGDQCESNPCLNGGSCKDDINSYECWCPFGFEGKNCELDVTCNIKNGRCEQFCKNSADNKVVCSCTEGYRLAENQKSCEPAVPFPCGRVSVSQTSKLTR

Target: FIXa (Homo sapiens, UniProt P00740)
Test: FIXa amidolytic activity (cleavage of FIXa substrate)
Type: biochemical
Design: purchased Stago
Conditions: 200 mU FIXa, various amounts of antibody

B1: 198/B1: anti-FIX/FIXa monoclonal IgG, ECACC No. 99090925; 198/AB2 is an identical subclone (protein)
scFv: EVQLQESGGGLVKPGGSLKLSCAASGFTFSSYTMSWVRQTPEKRLEWVATISSGGSSTYYPDSVKGRFTISRDNAKNTLYLQMSSLRSEDTAMYYCTREGGGFTVNWYFDVWGAGTLVTVSAGGGGSGGRASGGGGSENVLTQSPASLAVSLGQRATISCRASESVDSYGYNFMHWYQQIPGQPPKLLIYRASNLESGIPARFSGSGSRTDFTLTINPVEADDVATYYCQQSNEDPLTFGTGTRLEIKR
modifications: scFv derived from IgG; Description of Artificial Sequence:scFv from hybridoma cell line 198/AB2 (subclone of 198/B1)
notes: anti-FIX/FIXa monoclonal IgG, ECACC No. 99090925; 198/AB2 is an identical subclone
  enhancement of the amydolytic activity of FIXa: at least 2 fold
